Experimental data from EP2982983B1, “METHOD FOR DRUG SUSCEPTIBILITY TESTING OF MYCOBACTERIUM TUBERCULOSIS BY ELECTRON PARAMAGNETIC RESONANCE” (priority 2014, dated 2016).
Values after ≈ are worked out from the molar mass of the structure shown.

Test system: M. tuberculosis H37Rv
Experiment: Minimum inhibitory concentration
Format: cell-based
Conditions: Mycobacterium tuberculosis, read-out: MIC value

CO[C@H]1/C=C/O[C@@]2(C)Oc3c(C)c(O)c4c(O)c(c(/C=N/N5CCN(C)CC5)c(O)c4c3C2=O)NC(=O)/C(C)=C\C=C\[C@H](C)[C@H](O)[C@@H](C)[C@@H](O)[C@@H](C)[C@H](OC(C)=O)[C@@H]1C [rifampicin]
MIC: 0.125 µg/mL (≈ 0.152 µM)
